Source: the supplement of paper PMC7661543
± gives the standard deviation of the averaged measurements. The effect of the compound repeats well; differences between the knockouts mostly do not.

System: HCC-38
Test: relative cell number vs DMSO control (72 h) (% of DMSO); higher = less growth inhibition (more cells)
Description: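 QMAP-Seq: a pool of 5 breast cancer cell lines (ZR-75-1, SKBR3, HCC-38, MDA-MB-231, BT-20), each carrying 12 doxycycline-inducible Cas9 sgRNA perturbations (11 knockouts plus non-targeting sgNT), was treated with compounds for 72 h at four 10-fold doses (10 nM-10 uM or 1 nM-1 uM range). Barcodes were amplified and sequenced, and cell number was interpolated from 293T spike-in standard curves. The result is expressed as % of the median of DMSO wells. Two biological replicates.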

CCOC(=O)[C@@]1(CCCCCCOc2ccc(Cl)cc2)CO1 [Etomoxir]
Settings	relative cell number
sgRNA knockout: sgATF3, 10 nM	106 ± 16
sgRNA knockout: sgATF3, 100 nM	95 ± 14
sgRNA knockout: sgATF3, 1000 nM	105 ± 2.4
sgRNA knockout: sgATF3, 10000 nM	87 ± 4.2
sgRNA knockout: sgATF4, 10 nM	92.3 ± 11
sgRNA knockout: sgATF4, 100 nM	101 ± 21
sgRNA knockout: sgATF4, 1000 nM	107.2 ± 0.47
sgRNA knockout: sgATF4, 10000 nM	93.4 ± 6.5
sgRNA knockout: sgATF6, 10 nM	105 ± 6.2
sgRNA knockout: sgATF6, 100 nM	99.3 ± 5.7
sgRNA knockout: sgATF6, 1000 nM	108 ± 30
sgRNA knockout: sgATF6, 10000 nM	81.5 ± 2.5
sgRNA knockout: sgATG7, 10 nM	97.2 ± 11
sgRNA knockout: sgATG7, 100 nM	95.7 ± 2.9
sgRNA knockout: sgATG7, 1000 nM	104 ± 11
sgRNA knockout: sgATG7, 10000 nM	85.2 ± 8.6
sgRNA knockout: sgERN1, 10 nM	102 ± 22
sgRNA knockout: sgERN1, 100 nM	99 ± 9.1
sgRNA knockout: sgERN1, 1000 nM	109 ± 3
sgRNA knockout: sgERN1, 10000 nM	91.2 ± 3
sgRNA knockout: sgHSF1, 10 nM	107 ± 11
sgRNA knockout: sgHSF1, 100 nM	92.7 ± 4.9
sgRNA knockout: sgHSF1, 1000 nM	108 ± 13
sgRNA knockout: sgHSF1, 10000 nM	87.8 ± 12
sgRNA knockout: sgHSF2, 10 nM	106 ± 9.1
sgRNA knockout: sgHSF2, 100 nM	99 ± 4.9
sgRNA knockout: sgHSF2, 1000 nM	107 ± 1.2
sgRNA knockout: sgHSF2, 10000 nM	86.8 ± 1.2
sgRNA knockout: sgKEAP1, 10 nM	106.2 ± 0.65
sgRNA knockout: sgKEAP1, 100 nM	109 ± 16
sgRNA knockout: sgKEAP1, 1000 nM	112 ± 12
sgRNA knockout: sgKEAP1, 10000 nM	89 ± 29
sgRNA knockout: sgNFE2L2, 10 nM	90.1 ± 12
sgRNA knockout: sgNFE2L2, 100 nM	88.4 ± 8.8
sgRNA knockout: sgNFE2L2, 1000 nM	98.5 ± 3.3
sgRNA knockout: sgNFE2L2, 10000 nM	92.4 ± 1.1
sgRNA knockout: sgSLC35F2, 10 nM	90.9 ± 13
sgRNA knockout: sgSLC35F2, 100 nM	90.6 ± 8.2
sgRNA knockout: sgSLC35F2, 1000 nM	95.9 ± 7.8
sgRNA knockout: sgSLC35F2, 10000 nM	81.5 ± 5.2
sgRNA knockout: sgXBP1, 10 nM	99.7 ± 12
sgRNA knockout: sgXBP1, 100 nM	92.6 ± 9.1
sgRNA knockout: sgXBP1, 1000 nM	105 ± 3.7
sgRNA knockout: sgXBP1, 10000 nM	90.48 ± 0.39

C=CCn1c(=O)c2cnc(Nc3ccc(N4CCN(C)CC4)cc3)nc2n1-c1cccc(C(C)(C)O)n1 [MK1775]
Settings	relative cell number
sgRNA knockout: sgATF3, 10 nM	95.9 ± 17
sgRNA knockout: sgATF3, 100 nM	75.8 ± 5.5
sgRNA knockout: sgATF3, 1000 nM	35.44 ± 0.14
sgRNA knockout: sgATF3, 10000 nM	25.7 ± 5.4
sgRNA knockout: sgATF4, 10 nM	83.4 ± 16
sgRNA knockout: sgATF4, 100 nM	74.3 ± 11
sgRNA knockout: sgATF4, 1000 nM	33.1 ± 3.6
sgRNA knockout: sgATF4, 10000 nM	26.51 ± 0.21
sgRNA knockout: sgATF6, 10 nM	99.5 ± 11
sgRNA knockout: sgATF6, 100 nM	75.9 ± 6.8
sgRNA knockout: sgATF6, 1000 nM	28.1 ± 8.1
sgRNA knockout: sgATF6, 10000 nM	27.4 ± 2.5
sgRNA knockout: sgATG7, 10 nM	94.8 ± 21
sgRNA knockout: sgATG7, 100 nM	77.7 ± 7.4
sgRNA knockout: sgATG7, 1000 nM	34.1 ± 4.6
sgRNA knockout: sgATG7, 10000 nM	24.6 ± 0.51
sgRNA knockout: sgERN1, 10 nM	92.8 ± 19
sgRNA knockout: sgERN1, 100 nM	81.3 ± 3.5
sgRNA knockout: sgERN1, 1000 nM	32.1 ± 4.5
sgRNA knockout: sgERN1, 10000 nM	30.8 ± 0.32
sgRNA knockout: sgHSF1, 10 nM	94.7 ± 11
sgRNA knockout: sgHSF1, 100 nM	67.7 ± 2.5
sgRNA knockout: sgHSF1, 1000 nM	34.3 ± 2.7
sgRNA knockout: sgHSF1, 10000 nM	23.5 ± 1.5
sgRNA knockout: sgHSF2, 10 nM	91.5 ± 11
sgRNA knockout: sgHSF2, 100 nM	77.8 ± 2.7
sgRNA knockout: sgHSF2, 1000 nM	32.8 ± 1.2
sgRNA knockout: sgHSF2, 10000 nM	28.6 ± 4.7
sgRNA knockout: sgKEAP1, 10 nM	92.9 ± 8.3
sgRNA knockout: sgKEAP1, 100 nM	80.1 ± 30
sgRNA knockout: sgKEAP1, 1000 nM	35.6 ± 22
sgRNA knockout: sgKEAP1, 10000 nM	28.9 ± 2.7
sgRNA knockout: sgNFE2L2, 10 nM	82.8 ± 20
sgRNA knockout: sgNFE2L2, 100 nM	70.7 ± 4.7
sgRNA knockout: sgNFE2L2, 1000 nM	33.25 ± 0.13
sgRNA knockout: sgNFE2L2, 10000 nM	20.8 ± 0.77
sgRNA knockout: sgSLC35F2, 10 nM	91.5 ± 16
sgRNA knockout: sgSLC35F2, 100 nM	73.23 ± 0.28
sgRNA knockout: sgSLC35F2, 1000 nM	34.7 ± 8.2
sgRNA knockout: sgSLC35F2, 10000 nM	29.5 ± 2.8
sgRNA knockout: sgXBP1, 10 nM	84.8 ± 17
sgRNA knockout: sgXBP1, 100 nM	65 ± 4
sgRNA knockout: sgXBP1, 1000 nM	33.3 ± 3.9
sgRNA knockout: sgXBP1, 10000 nM	32.9 ± 3.6

CC/C(=C(\c1ccc(O)cc1)c1ccc(OCCN(C)C)cc1)c1ccccc1 [4-Hydroxytamoxifen]
Settings	relative cell number
sgRNA knockout: sgATF3, 10 nM	90.2 ± 2.1
sgRNA knockout: sgATF3, 100 nM	91.3 ± 13
sgRNA knockout: sgATF3, 1000 nM	88.1 ± 4
sgRNA knockout: sgATF3, 10000 nM	76.5 ± 1.2
sgRNA knockout: sgATF4, 10 nM	93.3 ± 14
sgRNA knockout: sgATF4, 100 nM	101 ± 11
sgRNA knockout: sgATF4, 1000 nM	91.9 ± 17
sgRNA knockout: sgATF4, 10000 nM	79.7 ± 5.4
sgRNA knockout: sgATF6, 10 nM	97.3 ± 6.8
sgRNA knockout: sgATF6, 100 nM	95.5 ± 14
sgRNA knockout: sgATF6, 1000 nM	96.1 ± 9.9
sgRNA knockout: sgATF6, 10000 nM	69.6 ± 1.1
sgRNA knockout: sgATG7, 10 nM	99.6 ± 2.3
sgRNA knockout: sgATG7, 100 nM	98.7 ± 12
sgRNA knockout: sgATG7, 1000 nM	91.6 ± 15
sgRNA knockout: sgATG7, 10000 nM	81 ± 11
sgRNA knockout: sgERN1, 10 nM	103 ± 4.7
sgRNA knockout: sgERN1, 100 nM	98.3 ± 9.7
sgRNA knockout: sgERN1, 1000 nM	91.9 ± 12
sgRNA knockout: sgERN1, 10000 nM	83.2 ± 3.4
sgRNA knockout: sgHSF1, 10 nM	93.3 ± 5
sgRNA knockout: sgHSF1, 100 nM	90.9 ± 3.2
sgRNA knockout: sgHSF1, 1000 nM	108 ± 3.2
sgRNA knockout: sgHSF1, 10000 nM	81.4 ± 9
sgRNA knockout: sgHSF2, 10 nM	98.2 ± 4
sgRNA knockout: sgHSF2, 100 nM	100 ± 3.7
sgRNA knockout: sgHSF2, 1000 nM	91.6 ± 10
sgRNA knockout: sgHSF2, 10000 nM	82.2 ± 9.5
sgRNA knockout: sgKEAP1, 10 nM	106 ± 13
sgRNA knockout: sgKEAP1, 100 nM	110 ± 14
sgRNA knockout: sgKEAP1, 1000 nM	99.1 ± 7.8
sgRNA knockout: sgKEAP1, 10000 nM	61.3 ± 13
sgRNA knockout: sgNFE2L2, 10 nM	93.7 ± 12
sgRNA knockout: sgNFE2L2, 100 nM	92.6 ± 6.2
sgRNA knockout: sgNFE2L2, 1000 nM	90.8 ± 25
sgRNA knockout: sgNFE2L2, 10000 nM	78.9 ± 3
sgRNA knockout: sgSLC35F2, 10 nM	101 ± 7.5
sgRNA knockout: sgSLC35F2, 100 nM	94.3 ± 17
sgRNA knockout: sgSLC35F2, 1000 nM	85.7 ± 9.2
sgRNA knockout: sgSLC35F2, 10000 nM	83.2 ± 13
sgRNA knockout: sgXBP1, 10 nM	95.2 ± 5.4
sgRNA knockout: sgXBP1, 100 nM	94.2 ± 8.1
sgRNA knockout: sgXBP1, 1000 nM	92.3 ± 12
sgRNA knockout: sgXBP1, 10000 nM	82.6 ± 5.6
